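Viability assay of Plasmodium falciparum sporozoites; the read-out is not stated. The concentration is filed as 10 mM, unlikely as a test dose, so the dose is not known. Higher reads as lower viability (inferred: compounds with an IC50 in retests scored well above the rest). Strong results were mostly tested again. Size under these conditions: about 34,000 compounds, about 280 of them at 50% or above in at least one test.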

Values are the deposited “Percent Effect”, in %.
The controls that fix the scale are not given in the record; negative values are as filed.
The compounds are a random part of those screened.
Two or more numbers in one place are separate tests of the same structure; such repeats can differ widely.

{"structure": "Cc1oc(-c2nc(C#N)c(N(C)C)o2)cc1S(=O)(=O)N1CCCC1", "effect": -4.605}
{"structure": "[H][C@]12CC[C@]([H])(CN(c3ncccn3)C1)N(C(=O)c1cccnc1SC)C2", "effect": -10.47}
{"structure": "[H][C@]12CCN(C(=O)NC)CC[C@@]1([H])S(=O)(=O)N(Cc1cccnc1)C2", "effect": 18.29}
{"structure": "CC(C)c1nccc(CN2CCCC(O)(CN(C)C)C2)n1", "stereo": "centres undefined", "effect": -8.769}
{"structure": "CCN1CCC2(C=C(C(=O)NC3CC3)c3ccccc32)CC1.O=C(O)C(F)(F)F", "effect": 3.034}
{"structure": "O=C(O)C(F)(F)F.O=C(O)C(F)(F)F.O=C(O)C(F)(F)F.[H][C@@]12CCCO[C@]1([H])[C@H](N(C)Cc1ccco1)CN(Cc1ccccn1)C2", "effect": -0.7299}
{"structure": "Clc1ccc(OCCc2cc(C3CCN(c4ncccn4)C3)n[nH]2)cc1", "stereo": "centres undefined", "effect": -1.457}
{"structure": "CC(C)N1CCc2c(CNC(=O)c3nccn3C)cncc2C1.Cl.Cl.Cl", "effect": 7.922}
{"structure": "[H][C@]12CCC[C@@H](CN3CCCC3)[C@@]1([H])CN(c1ncccn1)C2", "effect": 2.566}
{"structure": "CCC(CC)NC(=O)c1ncn2c1CN(CC)S(=O)(=O)c1ccccc1-2.O=C(O)C(F)(F)F", "effect": 1.01}
{"structure": "Cn1cc2c(n1)C(CNC(=O)Cc1ccsc1)OCC2", "stereo": "centres undefined", "effect": -20}
{"structure": "O=C(CCn1cc(Cl)cn1)Nc1ccc2c(c1)OCCO2", "effect": "65.57 and 50.96"}
{"structure": "CCN(CC)c1ccc(-c2nc(-c3cccc(OC)c3OC)no2)cn1", "effect": -2.79}
{"structure": "COCC(c1cccc(C(F)(F)F)c1)N(C)C(=O)c1cc(C)n[nH]1", "stereo": "centres undefined", "effect": 5.111}
{"structure": "CN(C)C(=O)C1CN(Cc2cccs2)CCN(S(C)(=O)=O)C1", "stereo": "centres undefined", "effect": 5.561}
{"structure": "CN(Cc1coc(-c2ccccc2)n1)C1CCCN(c2cccnn2)C1", "stereo": "centres undefined", "effect": -1.61}
{"structure": "Cc1nc(CN(C)C2CCN(CCc3cccs3)C2)no1", "stereo": "centres undefined", "effect": 8.508}
{"structure": "O=C1NCCN1C1CCN(Cc2nc(-c3ccoc3)no2)CC1", "effect": -14.72}
{"structure": "Cc1cnccc1CN1CC[C@@](C)(O)[C@H](Oc2ccccc2)C1", "effect": -4.858}
{"structure": "NS(=O)(=O)c1ccc(CC(=O)N2CCCC(n3cccn3)C2)cc1", "stereo": "centres undefined", "effect": -15.38}
{"structure": "CCOCCN1CCN(CCCS(C)(=O)=O)CC1C", "stereo": "centres undefined", "effect": 9.507}
{"structure": "CC(=O)N1CCC(n2nccc2-c2cnc(N3CCCC3)nc2)CC1", "effect": -0.254}
{"structure": "Cc1ccc(NC(=O)N(C)Cc2cnn(C)c2)c(C)c1", "effect": 1.03}
{"structure": "O=C(C1CCCCC1)N1CCCC2(CCN(c3cnccn3)CC2)C1.O=C(O)C(F)(F)F", "effect": 7.357}
{"structure": "CC(C)Cc1nc(OCC(N)=O)c(C#N)c2c1CCC2", "effect": 9.252}
{"structure": "[H][C@@]12CCN(C(=O)c3ccsc3)C[C@@]1([H])O[C@H](c1nnc(C3CC3)o1)C2", "effect": -7.039}
{"structure": "O=C(O)C(F)(F)F.O=C(O)C(F)(F)F.[H][C@@]12CN(Cc3cccc(F)c3)C[C@]1([H])CN(c1ncccn1)C2", "effect": -2.277}
{"structure": "Cc1nn(C)c(C)c1C1CCCN1C(=O)CCCc1ccccn1", "stereo": "centres undefined", "effect": -1.125}
{"structure": "CCn1cnnc1CNC(=O)c1cc(Cl)ccc1OC", "effect": 6.205}
{"structure": "CCN(Cc1ccc2c(c1)OCCO2)C(=O)NCc1nc(C)cs1", "effect": "-16.14 and -14.57 and -14.86"}
{"structure": "COC(C)(C)CNC(=O)C1CCC(=O)N(C2CCCC2)C1", "stereo": "centres undefined", "effect": -10.06}
{"structure": "COc1ccc(-c2cnc(CN3CCn4c(C)nnc4C3)o2)cc1", "effect": 4.287}
{"structure": "CC(O)C(=O)N1CCC(c2nccn2Cc2cscn2)CC1", "stereo": "centres undefined", "effect": -15.7}
{"structure": "CCN1C(=O)CCCC12CCCN(C(=O)c1cc(C)oc1C)C2", "stereo": "centres undefined", "effect": 3.065}
{"structure": "[H][C@@]12OCCN(C(=O)c3nn(C)c4ccccc34)[C@@]1([H])CC[C@@H]2OCC", "effect": 14.04}
{"structure": "CC(C)Cc1nc(CN2CCOC(Cn3cccn3)C2)no1", "stereo": "centres undefined", "effect": 6.507}
{"structure": "CC(C)c1nc(C2CCCN2c2ccnc(C3CCCC3)n2)no1", "stereo": "centres undefined", "effect": -17.2}
{"structure": "NS(=O)(=O)c1ccc(CNC(=O)c2ccc(Cl)cc2F)cc1", "effect": 18.64}
{"structure": "CCC(O)CN1CCN(C(=O)Cc2ccccc2Cl)CC1", "stereo": "centres undefined", "effect": 8.619}
{"structure": "O=C(O)C(F)(F)F.O=C(O)C(F)(F)F.[H][C@@]12CN(Cc3ccc(OC)cc3)C[C@]1([H])C(=O)N(Cc1ccncc1)C2", "effect": 8.383}
{"structure": "CC1CCCN(CCCNC(=O)Cc2csc(-c3ccoc3)n2)C1", "stereo": "centres undefined", "effect": -7.719}
{"structure": "[H][C@]12CCN(C(C)=O)[C@@]1([H])C[C@@H](C(=O)Nc1nc(C)cs1)O2", "effect": 14.13}
{"structure": "Cc1cc(C2CCCN2Cc2ccn(C)c(=O)c2)no1", "stereo": "centres undefined", "effect": -9.823}
{"structure": "CNC(=O)C1Cn2ccnc2C2(CCN(Cc3ccncc3)CC2)O1.O=C(O)C(F)(F)F.O=C(O)C(F)(F)F.O=C(O)C(F)(F)F", "stereo": "centres undefined", "effect": 3.007}
{"structure": "Cn1cccc1C(=O)N1CCn2cc(CN3CCCC3)nc2C1", "effect": 0.08591}
{"structure": "O=C(Cc1ccsc1)N1CCC(O)(CN2CCc3ccccc3C2)C1", "stereo": "centres undefined", "effect": 0.5021}
{"structure": "[H][C@@]12CN(S(C)(=O)=O)C[C@]1(C(=O)NC)CCC21CCN(C(=O)NC)CC1", "effect": -1.667}
{"structure": "CSCc1cccc(S(=O)(=O)N2CCSCC2)c1", "effect": -3.947}
{"structure": "CN(CCCNC(=O)C1CCc2cn[nH]c2C1)c1ccc(F)cc1", "stereo": "centres undefined", "effect": -5.606}
{"structure": "CN(Cc1ccncc1)C1COC2(CCN(Cc3ccccn3)CC2)C1.O=C(O)C(F)(F)F.O=C(O)C(F)(F)F.O=C(O)C(F)(F)F.O=C(O)C(F)(F)F", "stereo": "centres undefined", "effect": -11.44}
{"structure": "COc1c(C2CCCN2Cc2nc(C)c(C)o2)c(C)nn1C", "stereo": "centres undefined", "effect": 9.421}

Once more, the final 6:

{"structure": "O=C(Cc1ccsc1)N1CCC(O)(CN2CCc3ccccc3C2)C1", "stereo": "centres undefined", "effect": 0.5021}
{"structure": "[H][C@@]12CN(S(C)(=O)=O)C[C@]1(C(=O)NC)CCC21CCN(C(=O)NC)CC1", "effect": -1.667}
{"structure": "CSCc1cccc(S(=O)(=O)N2CCSCC2)c1", "effect": -3.947}
{"structure": "CN(CCCNC(=O)C1CCc2cn[nH]c2C1)c1ccc(F)cc1", "stereo": "centres undefined", "effect": -5.606}
{"structure": "CN(Cc1ccncc1)C1COC2(CCN(Cc3ccccn3)CC2)C1.O=C(O)C(F)(F)F.O=C(O)C(F)(F)F.O=C(O)C(F)(F)F.O=C(O)C(F)(F)F", "stereo": "centres undefined", "effect": -11.44}
{"structure": "COc1c(C2CCCN2Cc2nc(C)c(C)o2)c(C)nn1C", "stereo": "centres undefined", "effect": 9.421}

From ChEMBL document CHEMBL3988442, “University of Dundee, Small-Polar-MMV Screening Library” (2021).